{"sequences": {"note": "Protein sequences, listed by entry. Tags and fused reporters are not part of them.", "UniProt Q9VHP0": "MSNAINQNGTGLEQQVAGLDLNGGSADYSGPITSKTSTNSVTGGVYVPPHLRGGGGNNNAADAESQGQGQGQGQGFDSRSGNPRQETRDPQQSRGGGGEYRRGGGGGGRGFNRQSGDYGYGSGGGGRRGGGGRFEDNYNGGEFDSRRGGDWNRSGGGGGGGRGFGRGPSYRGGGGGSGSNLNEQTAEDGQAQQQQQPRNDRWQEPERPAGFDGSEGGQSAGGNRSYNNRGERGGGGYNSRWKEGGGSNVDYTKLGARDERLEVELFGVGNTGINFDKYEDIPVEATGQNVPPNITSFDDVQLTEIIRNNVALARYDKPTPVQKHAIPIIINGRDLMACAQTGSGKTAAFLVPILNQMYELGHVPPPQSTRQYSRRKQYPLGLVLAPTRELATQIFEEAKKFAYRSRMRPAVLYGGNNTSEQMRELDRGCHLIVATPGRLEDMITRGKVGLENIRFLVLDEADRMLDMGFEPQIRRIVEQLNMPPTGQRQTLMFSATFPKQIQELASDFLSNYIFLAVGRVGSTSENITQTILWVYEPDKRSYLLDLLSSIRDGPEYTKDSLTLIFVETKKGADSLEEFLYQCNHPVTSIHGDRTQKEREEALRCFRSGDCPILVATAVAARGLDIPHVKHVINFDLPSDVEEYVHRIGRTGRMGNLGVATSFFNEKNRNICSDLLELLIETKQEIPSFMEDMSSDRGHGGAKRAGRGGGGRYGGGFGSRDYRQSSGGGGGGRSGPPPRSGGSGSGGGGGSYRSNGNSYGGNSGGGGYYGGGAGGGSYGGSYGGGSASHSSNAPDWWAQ", "UniProt P25823": "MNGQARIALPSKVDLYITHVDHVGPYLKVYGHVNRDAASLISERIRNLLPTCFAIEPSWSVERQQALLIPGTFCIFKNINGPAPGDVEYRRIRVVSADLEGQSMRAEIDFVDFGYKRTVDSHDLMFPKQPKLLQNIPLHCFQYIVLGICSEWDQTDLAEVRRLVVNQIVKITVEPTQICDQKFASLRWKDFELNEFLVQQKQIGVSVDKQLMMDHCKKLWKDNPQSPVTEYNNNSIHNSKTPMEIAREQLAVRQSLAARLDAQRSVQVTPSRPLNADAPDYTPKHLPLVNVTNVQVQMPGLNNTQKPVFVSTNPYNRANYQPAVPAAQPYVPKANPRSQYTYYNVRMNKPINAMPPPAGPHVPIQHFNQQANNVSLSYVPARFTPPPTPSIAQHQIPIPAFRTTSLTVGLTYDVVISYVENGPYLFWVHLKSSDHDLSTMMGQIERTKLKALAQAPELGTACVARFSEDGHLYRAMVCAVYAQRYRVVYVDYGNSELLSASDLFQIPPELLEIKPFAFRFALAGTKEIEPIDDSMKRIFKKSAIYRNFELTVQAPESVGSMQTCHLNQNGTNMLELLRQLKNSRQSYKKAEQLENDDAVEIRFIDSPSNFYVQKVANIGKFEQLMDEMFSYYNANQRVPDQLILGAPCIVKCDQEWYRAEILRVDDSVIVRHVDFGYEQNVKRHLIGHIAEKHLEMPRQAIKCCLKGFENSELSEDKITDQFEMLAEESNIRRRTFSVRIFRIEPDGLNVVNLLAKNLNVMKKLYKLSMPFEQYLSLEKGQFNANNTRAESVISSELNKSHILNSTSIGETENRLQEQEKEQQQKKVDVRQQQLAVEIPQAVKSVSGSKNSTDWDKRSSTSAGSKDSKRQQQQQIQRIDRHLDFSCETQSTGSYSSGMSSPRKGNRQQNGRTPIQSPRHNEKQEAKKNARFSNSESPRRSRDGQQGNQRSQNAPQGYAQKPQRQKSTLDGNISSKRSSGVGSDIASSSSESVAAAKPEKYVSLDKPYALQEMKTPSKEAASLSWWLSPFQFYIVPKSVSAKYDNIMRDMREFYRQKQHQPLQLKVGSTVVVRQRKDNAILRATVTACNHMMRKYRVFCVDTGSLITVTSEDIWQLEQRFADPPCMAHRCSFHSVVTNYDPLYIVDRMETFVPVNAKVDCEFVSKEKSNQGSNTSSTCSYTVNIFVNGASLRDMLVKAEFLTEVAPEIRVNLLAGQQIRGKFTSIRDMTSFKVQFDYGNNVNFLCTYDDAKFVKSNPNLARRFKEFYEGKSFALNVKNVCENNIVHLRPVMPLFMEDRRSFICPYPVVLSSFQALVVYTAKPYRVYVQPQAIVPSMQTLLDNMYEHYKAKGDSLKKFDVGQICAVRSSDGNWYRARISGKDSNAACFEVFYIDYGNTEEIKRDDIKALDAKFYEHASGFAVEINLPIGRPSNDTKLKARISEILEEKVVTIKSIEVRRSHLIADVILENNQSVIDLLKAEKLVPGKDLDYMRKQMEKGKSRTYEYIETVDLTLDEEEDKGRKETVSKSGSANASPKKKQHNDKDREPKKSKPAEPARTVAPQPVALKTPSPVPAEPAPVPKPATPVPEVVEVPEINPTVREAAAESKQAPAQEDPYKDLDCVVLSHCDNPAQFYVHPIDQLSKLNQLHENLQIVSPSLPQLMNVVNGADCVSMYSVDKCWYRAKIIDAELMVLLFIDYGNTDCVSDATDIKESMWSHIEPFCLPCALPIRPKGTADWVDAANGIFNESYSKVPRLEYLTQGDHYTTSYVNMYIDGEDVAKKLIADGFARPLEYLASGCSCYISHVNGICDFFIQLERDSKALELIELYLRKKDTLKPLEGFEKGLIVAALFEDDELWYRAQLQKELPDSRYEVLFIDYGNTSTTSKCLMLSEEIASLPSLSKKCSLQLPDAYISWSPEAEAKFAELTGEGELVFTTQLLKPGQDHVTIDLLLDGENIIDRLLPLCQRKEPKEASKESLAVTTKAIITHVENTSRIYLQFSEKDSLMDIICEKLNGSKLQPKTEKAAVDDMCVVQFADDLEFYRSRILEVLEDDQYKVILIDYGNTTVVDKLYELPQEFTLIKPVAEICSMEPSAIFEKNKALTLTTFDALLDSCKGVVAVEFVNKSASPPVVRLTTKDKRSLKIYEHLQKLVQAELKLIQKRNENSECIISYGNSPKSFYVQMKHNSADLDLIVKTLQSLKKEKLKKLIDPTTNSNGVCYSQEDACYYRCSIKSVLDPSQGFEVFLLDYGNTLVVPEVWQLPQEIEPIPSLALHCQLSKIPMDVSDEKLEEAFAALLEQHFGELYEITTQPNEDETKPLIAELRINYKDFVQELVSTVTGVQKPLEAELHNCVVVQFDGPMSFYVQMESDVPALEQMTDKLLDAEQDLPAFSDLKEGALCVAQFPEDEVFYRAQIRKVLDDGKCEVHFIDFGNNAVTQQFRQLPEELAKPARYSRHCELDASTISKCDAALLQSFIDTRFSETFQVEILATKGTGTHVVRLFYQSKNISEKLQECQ", "UniProt P21187": "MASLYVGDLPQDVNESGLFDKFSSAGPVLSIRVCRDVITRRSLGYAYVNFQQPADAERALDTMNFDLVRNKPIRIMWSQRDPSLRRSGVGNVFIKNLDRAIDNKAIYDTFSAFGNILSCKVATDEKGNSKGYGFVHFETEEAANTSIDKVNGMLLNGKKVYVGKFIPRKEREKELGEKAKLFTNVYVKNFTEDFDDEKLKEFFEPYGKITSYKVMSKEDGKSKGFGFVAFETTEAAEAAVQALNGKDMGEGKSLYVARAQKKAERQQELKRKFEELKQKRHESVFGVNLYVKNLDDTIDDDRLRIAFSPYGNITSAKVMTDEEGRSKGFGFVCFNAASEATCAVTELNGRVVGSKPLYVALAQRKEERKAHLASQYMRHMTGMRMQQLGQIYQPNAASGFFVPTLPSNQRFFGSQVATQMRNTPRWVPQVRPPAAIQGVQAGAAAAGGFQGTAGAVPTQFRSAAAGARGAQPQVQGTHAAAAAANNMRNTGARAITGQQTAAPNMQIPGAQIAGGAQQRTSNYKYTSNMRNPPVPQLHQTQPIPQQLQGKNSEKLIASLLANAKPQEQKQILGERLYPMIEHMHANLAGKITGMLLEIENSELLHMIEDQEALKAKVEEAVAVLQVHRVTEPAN"}, "source": "paper PMC7196074", "molecules": {"B1": {"name": "eIF3b, endogenous (protein, UniProt Q0E940 1-690)", "chain": "MAKKKSEEHSGTDANDSDYQEEPNFDDPPGFVDNISDEDLLGDMLAQRPSEADGVESVVVVDNIPKVEPVRLEKLKLVINKLFSNYGEIVNVVYPVDEEGKTKGYAFMEYKQARQAEEAVKKLNNHRLDKNHTFAVNLFTDFQKYENIPEKWEPPTVQTFKVQSDLYNFINDPDTYDQYCVAAETAPNCVQVGFWQNVLPEPFELETRERFTDTFVKWSPLGTYVVTFHKPGVAIWGGSSFQKIQKFPHPGTQFVEFSPCENYLVTYGPTPTGQKIIIWDIRTGAEKRSFVADGMSVLSMFRWSHDDKFVARMGENSIHIYETPSFYLLDLKSIKIPGIRGFSWSPTDNVIAYWVEEQNQIPARVTLMEIPKKREIRNKNLFHVADCKLHWQKSGDYLCVKVDRYSKLKKDKKDLDVKFLGMFYNFEIFHMREKEIPVDSVEIRELILAFAWEPVGNKFSIIHGETNSSNVSFYEVNKGVKPSLVKRLEKKSCTHLFWSPRGQFIVMANLTMGTFEFVDSTNDYIITASPDHFRASEVEWDPTGRYVVTGVSSWKVKEDTGFNMYTFQGRIIKRTILKNFVQFLWRPRPPTLLSEEKQKEIKKNLKKYYAAFEQKDRLRLTRASKELLEKRSQLRETFMEYRNKRIAEWAEQKSRRIMLRGHVDTDNLETDEVDEEIVEFLVKEEVTLLE"}, "B2": {"name": "Cup (protein, UniProt Q9VMA3 1-1117)", "chain": "MQMAEAEQENGAGALKIATNAGATDRPAHQQLPLPVEDQQDEVLTPAEKGKFEYPPPPPPPTPVQAPLATKATALNASQEHDDDEANSEKWEDPCAPPPPPPLPTSAFLATGLGYLKLPAFKLKDALEKAITKLEANKRTLKASPESSRSIKNKNVVALEMLPRRSNPETIGDGSMLASTSTAVMLQTKKPAVIVEMERRCKIINLLAKQNQILESISGEAIPMHGPSKHLHEDEGLTLQVLSARASTPYTQPSSMLSCTAVSCDLEHDSPRKQVASKEAVPEQQSSQVQQKRPPSTGIHKPGSLRAPKAVRPTTAPVVSSKPVKSYTRSRLMDIRNGMFNALMHRSKESFVMPRIATCDDIELEGRLRRMNIWRTSDGTRFRTRSTTANLNMNNNNNNECMPAFFKNKNKPNLISDESIIQSQPPQPQTEFQDPAIVNQRRIGSGRLNHSKWGYNDEDYHSYHNGKSQHMEEVNSKNSKNMTVLQFFDNGEISSQPQRRPNTPVMGMSINRSENDTLHSNESSEDLSRANENYVKRVMSGFLVVSKPKSRDVEDRHHRRYRNQNEEPEWFSCGPTSRLDTIELCGFDEDEEKMLKEGNKNHGLGETERETSKQKMDHKYKWTHAEPMGRSKYMPKHDTNNNHNVENMNNVMATEHQQQKEEKRPGSGRSFQFDKFNQSQQNYESSSYVNHQQPPQTQPQQMQQQSNTNTNNSKFMSFFANEGNSSSSSLNEFFKQAINQGHGNNPEQPKSLGHIGQMPSVDQLEAKWRRNSLNNVGETANKQTDNFQKLIGSLSSAKPQSQAVGYDAISNFIMQQQQYQQQQQKQHLIIQQQQQHTAFLASLQLKAILGRADTQLLLLRLTKGEISKHGLLVQLANPRLTDMDREAITAVLQFTNTQQQQQQHKQQLDMLSSTVIASQLQNLHNLAIVQQTLAARQQPQHNPQTQAPHQLSQEDLQAHANVIMRNAVMKRKIEEQTSKLINGGAKHQAQQQYLNRGQQRQARPDANSNALLHALISGGGNNHASGYPMNGQPQKHHSNLRFGDNQNFQSFESNQPHFATQYKQQYQQSQQQHPHQQPQQLNSLHQNNAGAVNSFNKAQMQAQSAISMLPNSGDEFH"}, "B3": {"name": "Capsuleen/PRMT5 (Csul) (enzyme, UniProt Q9U6Y9 1-610)", "chain": "MNYYVCLHQEGVNSIPKLIEKAFANNYNVVSTSINANMLPFEPHESDPTYPATILSGSDWNSKVIFTMSDVNVDSPNDKLREHAKEVFMRDVAWAEHLQNVGNLMVRLRGPENENLASIVLAKTKDDFPSGNWFIQVPITNPELATFEHRKDATAEEVAEAESNDPWNWWNNLRMVTKHSTKVKVVIELNDADRPSKETVRRWLGEPIEAIIIPSSLFVRNRSNYCVLKKEWQLIVGHFISVRANIIISTNPNDKALCQYADYVNKLINDNCDKHMLNSYENMLEIPLQPLCDNLDTYTYEVFETDPVKYKLYQDAVQAALLDRVSAAEAKTKLTVVMLLGGGRGPLARAVFNAAELTKRKVRLYIIEKNPNAIRTLSNMVKTLWADKDVHIFSKDMRDFSPPELADIMVSELLGSFGDNELSPECLDGALKLLKPDGISIPYKSTSYINPLMSAVLHQNVCQLLPTYPAFDYGYVSLLKNIYHIDEPQALFEFVHPNRAENIDNTRCKTVSFKVNKDCVLHGIGGYFDTHLYKDICLSINPLTHTPGMFSWFPMFFATRPRTLREGQTISIQFWRCVDATKVWYEWQVVNSPDDWEHHNTRGTGYNMRL"}}, "note": "No constants are given. Whether binding was seen depends on the method and setting. In cells and extracts the contact can be indirect. A yes stands for co-enrichment or nearness to the bait. Other partners may have been found. Tags and fused reporters may be left off the sequences shown.", "data": [{"target": "T1, GFP-Aub (Aubergine) (Drosophila) (UniProt O76922)", "T1 sequence": "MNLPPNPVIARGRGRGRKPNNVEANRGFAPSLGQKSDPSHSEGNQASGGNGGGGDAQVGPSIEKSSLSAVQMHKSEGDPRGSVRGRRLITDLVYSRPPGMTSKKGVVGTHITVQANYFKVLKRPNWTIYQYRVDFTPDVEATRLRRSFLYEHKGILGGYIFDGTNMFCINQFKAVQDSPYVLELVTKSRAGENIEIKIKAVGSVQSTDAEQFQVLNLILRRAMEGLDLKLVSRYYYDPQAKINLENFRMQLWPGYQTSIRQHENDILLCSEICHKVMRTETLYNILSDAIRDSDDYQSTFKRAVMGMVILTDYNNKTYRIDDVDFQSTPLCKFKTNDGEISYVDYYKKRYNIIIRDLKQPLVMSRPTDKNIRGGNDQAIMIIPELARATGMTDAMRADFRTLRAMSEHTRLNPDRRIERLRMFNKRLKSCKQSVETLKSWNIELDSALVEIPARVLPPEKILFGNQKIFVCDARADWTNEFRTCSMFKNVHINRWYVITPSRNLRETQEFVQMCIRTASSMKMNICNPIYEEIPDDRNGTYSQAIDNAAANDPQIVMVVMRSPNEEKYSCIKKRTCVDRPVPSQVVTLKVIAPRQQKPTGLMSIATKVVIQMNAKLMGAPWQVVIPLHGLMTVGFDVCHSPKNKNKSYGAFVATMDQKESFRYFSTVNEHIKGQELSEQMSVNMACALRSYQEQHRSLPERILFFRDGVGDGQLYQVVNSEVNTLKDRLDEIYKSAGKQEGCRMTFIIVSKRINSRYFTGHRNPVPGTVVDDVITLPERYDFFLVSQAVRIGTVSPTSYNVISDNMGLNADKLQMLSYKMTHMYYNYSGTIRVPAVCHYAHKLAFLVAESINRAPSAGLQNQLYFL", "assay": "affinity purification with mass spectrometry; GFP-Aub precipitated on GFP-trap beads from lysates of 0-2 h embryos (UASp-GFP-Aub nos-Gal4; also osk^54 mutant embryos), DXB buffer with 150 mM NaCl, Triton X-100 and RNasin, overnight at 4 °C; embryos expressing GFP alone as control", "values": [{"molecule": "Belle (Bel) (from UniProt Q9VHP0 1-798)", "binding": "binds"}, {"molecule": "Tudor (Tud) (from UniProt P25823 1-2515)", "binding": "binds"}, {"molecule": "eIF3d, endogenous (Drosophila (endogenous in 0-2 h embryos))", "binding": "binds"}, {"molecule": "eIF4E, endogenous (Drosophila (endogenous in 0-2 h embryos))", "binding": "binds"}, {"molecule": "poly(A)-binding protein (PABP), endogenous (from UniProt P21187 1-634)", "binding": "binds"}, {"molecule": "B1", "binding": "binds"}, {"molecule": "B2", "binding": "binds"}, {"molecule": "B3", "binding": "binds"}]}]}
